Earlier results as cited in patent US20060057071A1, “Paramagnetic complexes with pendant crown compounds showing improved targeting-specificity as MRI contrast agents” (priority 2004, published 2006).
For at least one compound, name, drawing or mass did not settle the structure.

What was measured:
[1] = cited from earlier work
[2] = cited from earlier work; remark: listed apart in the source

Q: Which “log K (K formation constant of the metal complex)” value [1] does the source give for `O=C([O-])CN(CCN(CC(=O)[O-])CC(=O)O)CCN(CC(=O)[O-])CC(=O)O.[Gd+3]` [Gd-DTPA, reference compound] here?
A: 24.6

Q: What about the osmolality [2] of the same compound?
A: 1960 mOsmol/kg
